Reference: publication PMC3316532
Results are given in words; binding and its absence hold for the method and conditions named. Binding seen in cells or lysates may run through a third protein.

Chains of the proteins cited; added tags and fusions are not shown. Residues count along the entry.
UniProt P48768, residues 21-921: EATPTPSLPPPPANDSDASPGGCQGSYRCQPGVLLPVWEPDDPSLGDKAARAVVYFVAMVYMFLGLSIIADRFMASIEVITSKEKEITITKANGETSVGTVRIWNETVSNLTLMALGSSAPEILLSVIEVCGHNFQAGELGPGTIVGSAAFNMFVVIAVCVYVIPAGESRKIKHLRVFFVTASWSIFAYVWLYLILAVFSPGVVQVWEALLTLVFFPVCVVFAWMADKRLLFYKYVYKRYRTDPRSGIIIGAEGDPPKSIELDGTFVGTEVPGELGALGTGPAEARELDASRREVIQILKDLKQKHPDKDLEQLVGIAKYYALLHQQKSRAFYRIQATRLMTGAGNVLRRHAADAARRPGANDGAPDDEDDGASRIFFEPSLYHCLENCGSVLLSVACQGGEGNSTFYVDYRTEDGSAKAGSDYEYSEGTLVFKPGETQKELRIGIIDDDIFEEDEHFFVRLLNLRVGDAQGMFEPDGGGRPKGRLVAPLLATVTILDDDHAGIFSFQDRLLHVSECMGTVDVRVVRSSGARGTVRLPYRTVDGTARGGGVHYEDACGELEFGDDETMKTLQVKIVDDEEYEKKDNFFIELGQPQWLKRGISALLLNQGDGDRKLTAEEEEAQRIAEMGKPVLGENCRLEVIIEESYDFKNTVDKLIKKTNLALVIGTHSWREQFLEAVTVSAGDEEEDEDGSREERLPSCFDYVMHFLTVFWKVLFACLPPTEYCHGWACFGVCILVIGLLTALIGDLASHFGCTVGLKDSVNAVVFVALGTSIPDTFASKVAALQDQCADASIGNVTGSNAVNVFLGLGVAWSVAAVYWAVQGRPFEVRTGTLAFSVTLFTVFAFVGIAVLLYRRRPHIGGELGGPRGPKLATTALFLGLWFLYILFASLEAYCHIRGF
UniProt P70549, residues 31-927: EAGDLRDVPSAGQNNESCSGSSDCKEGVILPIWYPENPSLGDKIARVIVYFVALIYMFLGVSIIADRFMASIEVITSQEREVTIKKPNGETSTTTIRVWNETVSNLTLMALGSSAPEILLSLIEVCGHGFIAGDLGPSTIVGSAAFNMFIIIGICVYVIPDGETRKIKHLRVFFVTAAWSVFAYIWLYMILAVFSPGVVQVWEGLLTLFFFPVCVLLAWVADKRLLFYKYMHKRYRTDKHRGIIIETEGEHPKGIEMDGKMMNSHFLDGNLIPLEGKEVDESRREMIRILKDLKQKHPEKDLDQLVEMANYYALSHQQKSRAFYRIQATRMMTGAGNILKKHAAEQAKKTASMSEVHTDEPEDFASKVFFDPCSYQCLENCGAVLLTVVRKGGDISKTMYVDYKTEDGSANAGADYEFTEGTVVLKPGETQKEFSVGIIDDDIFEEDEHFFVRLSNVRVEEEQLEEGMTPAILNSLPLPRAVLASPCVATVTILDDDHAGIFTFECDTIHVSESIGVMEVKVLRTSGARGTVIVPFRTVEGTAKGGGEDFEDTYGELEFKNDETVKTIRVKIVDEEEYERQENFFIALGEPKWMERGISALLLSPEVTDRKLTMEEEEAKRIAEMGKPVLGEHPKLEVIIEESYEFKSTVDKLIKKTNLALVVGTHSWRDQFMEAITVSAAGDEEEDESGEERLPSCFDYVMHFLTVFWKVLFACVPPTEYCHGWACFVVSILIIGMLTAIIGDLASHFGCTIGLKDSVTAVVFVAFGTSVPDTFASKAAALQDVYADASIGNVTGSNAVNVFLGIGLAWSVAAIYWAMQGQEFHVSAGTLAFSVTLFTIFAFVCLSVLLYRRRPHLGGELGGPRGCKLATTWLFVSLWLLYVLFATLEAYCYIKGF

Molecular target: T1, Excitatory Amino Acid Carrier 1 (EAAC1), rat (rat (endogenous in hippocampus, cortex, heart and C6 glioma cells)) (UniProt P51907)
T1 sequence: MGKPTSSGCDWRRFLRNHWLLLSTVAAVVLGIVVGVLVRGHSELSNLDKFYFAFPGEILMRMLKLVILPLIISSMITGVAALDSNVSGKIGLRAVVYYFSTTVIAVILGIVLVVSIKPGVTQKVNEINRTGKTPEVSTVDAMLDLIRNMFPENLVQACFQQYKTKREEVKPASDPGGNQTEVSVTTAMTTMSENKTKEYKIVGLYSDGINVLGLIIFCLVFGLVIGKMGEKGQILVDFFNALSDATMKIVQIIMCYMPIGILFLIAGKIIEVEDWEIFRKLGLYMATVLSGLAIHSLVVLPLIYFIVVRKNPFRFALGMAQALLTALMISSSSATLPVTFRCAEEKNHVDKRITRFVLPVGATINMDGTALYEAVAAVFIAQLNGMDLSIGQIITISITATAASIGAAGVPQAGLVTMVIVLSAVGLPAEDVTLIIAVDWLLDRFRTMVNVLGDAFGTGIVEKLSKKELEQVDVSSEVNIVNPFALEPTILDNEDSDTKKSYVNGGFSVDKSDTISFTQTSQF
Assay: co-IP; mitochondrial protein extracts from rat hippocampus and cortex; immunoprecipitation with mouse monoclonal anti-EAAC1 or anti-NCX1 (R3F1) antibody, A-Sepharose beads, western blot; normal mouse serum as negative control

Row | Substance | binding
1 | Na+/Ca2+ exchanger 2 (NCX2), rat (from UniProt P48768 21-921) | no binding
2 | Na+/Ca2+ exchanger 3 (NCX3), rat (from UniProt P70549 31-927) | no binding
